Results are given in words; binding and its absence hold for the method and conditions named. Binding seen in cells or lysates may run through a third protein. Here binding means that the protein was enriched with, or labelled near, the bait; the list need not be complete.
Molecular target: T1, SARM1 (bait of the affinity purification from Expi293F cells) (human) (UniProt Q6SZW1)
T1 sequence: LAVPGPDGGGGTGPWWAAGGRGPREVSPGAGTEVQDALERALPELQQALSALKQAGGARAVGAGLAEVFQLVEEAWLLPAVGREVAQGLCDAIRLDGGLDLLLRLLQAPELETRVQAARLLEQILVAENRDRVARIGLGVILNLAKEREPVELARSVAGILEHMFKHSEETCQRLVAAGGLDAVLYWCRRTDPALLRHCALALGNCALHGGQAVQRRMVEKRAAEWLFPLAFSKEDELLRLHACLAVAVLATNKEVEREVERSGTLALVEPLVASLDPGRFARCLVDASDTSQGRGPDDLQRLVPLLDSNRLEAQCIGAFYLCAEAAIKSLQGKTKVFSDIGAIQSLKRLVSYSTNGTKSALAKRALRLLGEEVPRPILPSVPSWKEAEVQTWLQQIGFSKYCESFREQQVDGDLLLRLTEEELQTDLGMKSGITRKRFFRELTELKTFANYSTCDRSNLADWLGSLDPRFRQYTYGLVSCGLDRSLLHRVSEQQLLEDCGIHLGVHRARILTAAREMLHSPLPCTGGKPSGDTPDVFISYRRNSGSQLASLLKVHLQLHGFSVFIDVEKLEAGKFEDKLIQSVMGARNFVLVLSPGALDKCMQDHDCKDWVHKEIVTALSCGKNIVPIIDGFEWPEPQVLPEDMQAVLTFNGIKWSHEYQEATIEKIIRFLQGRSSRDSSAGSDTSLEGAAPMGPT
Assay: affinity purification with mass spectrometry

Chains of the proteins cited; added tags and fusions are not shown.
UniProt P14618: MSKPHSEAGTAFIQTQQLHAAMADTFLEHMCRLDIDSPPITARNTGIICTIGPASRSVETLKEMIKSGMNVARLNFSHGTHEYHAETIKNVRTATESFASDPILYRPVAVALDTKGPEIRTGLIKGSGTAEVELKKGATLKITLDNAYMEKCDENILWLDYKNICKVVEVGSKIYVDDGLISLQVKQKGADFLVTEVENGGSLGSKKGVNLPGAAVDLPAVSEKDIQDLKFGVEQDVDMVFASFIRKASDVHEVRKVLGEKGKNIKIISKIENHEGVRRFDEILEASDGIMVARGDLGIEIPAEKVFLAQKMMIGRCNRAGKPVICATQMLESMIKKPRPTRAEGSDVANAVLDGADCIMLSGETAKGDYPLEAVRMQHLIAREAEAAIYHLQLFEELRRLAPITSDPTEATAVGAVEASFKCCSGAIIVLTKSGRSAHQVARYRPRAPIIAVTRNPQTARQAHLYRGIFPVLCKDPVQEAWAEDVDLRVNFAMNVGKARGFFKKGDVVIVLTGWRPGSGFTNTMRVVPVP
UniProt P21796: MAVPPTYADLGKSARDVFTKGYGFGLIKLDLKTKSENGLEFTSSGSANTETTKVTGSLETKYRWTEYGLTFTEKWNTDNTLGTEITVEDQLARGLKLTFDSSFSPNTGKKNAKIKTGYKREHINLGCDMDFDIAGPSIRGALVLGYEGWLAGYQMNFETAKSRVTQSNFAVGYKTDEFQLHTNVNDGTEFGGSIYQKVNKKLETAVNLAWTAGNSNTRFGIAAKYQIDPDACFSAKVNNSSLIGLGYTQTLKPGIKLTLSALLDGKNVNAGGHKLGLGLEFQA

binding | Substance
binds | Pyruvate kinase M (PKM), endogenous in Expi293F cells (from UniProt P14618 1-531) (enzyme)
binds | VDAC1 (from UniProt P21796 1-283)

— doi:10.1101/2025.05.28.656718
